PubChem BioAssay AID1259405 – NCATS – 2018
Purpose: 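Silenced genes that increase secreted GFP made by CHO cells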 (primary screen). System: Chinese hamster CHO-K1 ovary cells with stable secreted eGFP expression. Reagent: single siRNA against mouse genes, 0.8 pmol siRNA per well (2 µl of 400 nM stock). Duration: 3 days. Detection: 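Percent of the per-plate non-targeting control median for intracellular GFP per well by laser scanning cytometry and for cell viability by ATP luminescence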. Direction: GFP, % of control: higher = more GFP per well, higher productivity. Active means: 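a knock-down is called active if GFP reaches 120% or more of non-targeting control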.
Here is an unselected part of about 50,000 reagents tested. Over the whole deposit, about 4,000 (8%) got an active call. 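Mouse siRNA library applied to hamster cells; one well for each siRNA.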 Not all columns of the deposit are shown. Reagent sequences are not shown.

GFP, % of control, by gene symbol and reagent
Cend1: SID363540645 50.3 inactive; SID363543096 96 inactive; SID363552589 68.5 inactive
Fam219b: SID363543390 46.5 inactive; SID363552883 70.7 inactive; SID363558731 54.1 inactive
Fgl2: SID363572685 87 inactive; SID363577965 160 active; SID363582189 106 inactive
Cyp2j6: SID363573059 63.4 inactive; SID363577635 83.3 inactive; SID363581155 73.2 inactive
Rad23a: SID363569099 64.9 inactive; SID363583531 93.7 inactive
Or7a39: SID363554443 70.8 inactive; SID363567890 50.3 inactive; SID363585247 58.1 inactive
Or8g28: SID363554795 81.3 inactive; SID363568242 82.1 inactive; SID363586301 71.6 inactive
Glyctk: SID363570723 110 inactive
Cdc20: SID363584438 58.2 inactive; SID363589468 128 active
Ppfia2: SID363581710 60.5 inactive; SID363589204 121 active
Arl8b: SID363541488 45.9 inactive; SID363556115 50.6 inactive; SID363566404 86.7 inactive
Or9s23: SID363544483 88.8 inactive; SID363550811 81.5 inactive; SID363557360 54.1 inactive

Not a retest: 11 of the entries above.
GFP, % of control, by gene symbol and reagent
Or8g28: SID363568242 82.1 inactive; SID363586301 71.6 inactive
Glyctk: SID363570723 110 inactive
Cdc20: SID363584438 58.2 inactive; SID363589468 128 active
Ppfia2: SID363581710 60.5 inactive; SID363589204 121 active
Arl8b: SID363541488 45.9 inactive; SID363556115 50.6 inactive; SID363566404 86.7 inactive
Or9s23: SID363544483 88.8 inactive

Further reagents follow:
GFP, % of control, by gene symbol and reagent
Stx3: SID363582458 113 inactive; SID363584218 93.9 inactive
Stx16: SID363582424 121 active; SID363584184 79.2 inactive
Ccdc102a: SID363547096 74 inactive; SID363549908 79.8 inactive; SID363587962 136 active
Lipi: SID363545676 72.1 inactive; SID363549189 109 inactive; SID363562995 37.3 inactive
Nfkbid: SID363546657 78.6 inactive; SID363548413 103 inactive; SID363560591 83.1 inactive
Pemt: SID363554533 116 inactive; SID363567980 37.4 inactive; SID363586039 88.4 inactive
Or12j3: SID363545018 48.3 inactive; SID363551346 68 inactive; SID363557895 106 inactive
Itgb1: SID363544037 95.9 inactive; SID363550365 75 inactive; SID363556914 63 inactive
Rep15: SID363543394 78.1 inactive; SID363552887 96.2 inactive; SID363558735 86.5 inactive
Alx1: SID363569378 115 inactive; SID363577122 28.1 inactive; SID363578530 54.5 inactive
Slc28a1: SID363574785 92.8 inactive; SID363575841 44.5 inactive; SID363580417 97.8 inactive
Eif5b: SID363553968 47.6 inactive; SID363561925 45.3 inactive; SID363565663 105 inactive
Sptlc2: SID363570499 61.3 inactive; SID363579299 58.5 inactive; SID363583171 90 inactive
Pitpnm1: SID363581759 66.6 inactive; SID363589253 95.7 inactive
Pcdh17: SID363573382 26.8 inactive; SID363588621 102 inactive
Tmem17: SID363556328 118 inactive; SID363586778 77 inactive; SID363588886 87.4 inactive
Rps13: SID363554907 60.5 inactive; SID363568354 43.6 inactive; SID363586413 72.4 inactive
Celf5: SID363569574 86.5 inactive; SID363577318 144 active; SID363578726 51.4 inactive
Cyp2c23: SID363547652 39.5 inactive; SID363558421 84.5 inactive; SID363560179 83 inactive
